Measured values reported in paper PMC13035903.
Results are given in words; binding and its absence hold for the method and conditions named. In cells and extracts the contact can be indirect. Some entries that bind do so weakly or less than the wild type.

The chains behind the UniProt entries cited, without tags or fusion partners.
UniProt Q9UKV0: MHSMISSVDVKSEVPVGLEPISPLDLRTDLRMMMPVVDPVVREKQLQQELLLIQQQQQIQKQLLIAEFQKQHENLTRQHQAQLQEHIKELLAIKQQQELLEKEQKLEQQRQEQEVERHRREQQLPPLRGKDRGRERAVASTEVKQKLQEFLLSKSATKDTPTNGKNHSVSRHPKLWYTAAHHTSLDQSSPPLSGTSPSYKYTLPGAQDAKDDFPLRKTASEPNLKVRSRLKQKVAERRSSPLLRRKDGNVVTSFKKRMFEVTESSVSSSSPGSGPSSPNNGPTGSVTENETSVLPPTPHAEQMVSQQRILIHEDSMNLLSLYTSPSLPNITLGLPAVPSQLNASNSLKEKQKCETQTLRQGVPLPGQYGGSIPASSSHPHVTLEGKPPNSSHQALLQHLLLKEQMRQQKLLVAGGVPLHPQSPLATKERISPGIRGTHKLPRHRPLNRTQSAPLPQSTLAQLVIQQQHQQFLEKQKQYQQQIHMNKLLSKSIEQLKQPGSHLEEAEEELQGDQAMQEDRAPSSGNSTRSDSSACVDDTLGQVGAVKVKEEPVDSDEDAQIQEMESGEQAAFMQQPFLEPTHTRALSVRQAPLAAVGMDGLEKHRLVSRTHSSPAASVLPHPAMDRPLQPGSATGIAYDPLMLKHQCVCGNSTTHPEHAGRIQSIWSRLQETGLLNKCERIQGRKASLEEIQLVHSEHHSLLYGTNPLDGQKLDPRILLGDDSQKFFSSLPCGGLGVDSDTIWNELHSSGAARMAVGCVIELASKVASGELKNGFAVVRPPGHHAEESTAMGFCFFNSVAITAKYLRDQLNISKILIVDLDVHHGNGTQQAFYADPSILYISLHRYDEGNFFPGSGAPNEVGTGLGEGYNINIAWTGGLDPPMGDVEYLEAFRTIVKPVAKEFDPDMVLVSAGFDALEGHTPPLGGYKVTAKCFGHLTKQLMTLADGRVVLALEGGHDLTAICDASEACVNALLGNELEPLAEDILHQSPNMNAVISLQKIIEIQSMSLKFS
UniProt P42224: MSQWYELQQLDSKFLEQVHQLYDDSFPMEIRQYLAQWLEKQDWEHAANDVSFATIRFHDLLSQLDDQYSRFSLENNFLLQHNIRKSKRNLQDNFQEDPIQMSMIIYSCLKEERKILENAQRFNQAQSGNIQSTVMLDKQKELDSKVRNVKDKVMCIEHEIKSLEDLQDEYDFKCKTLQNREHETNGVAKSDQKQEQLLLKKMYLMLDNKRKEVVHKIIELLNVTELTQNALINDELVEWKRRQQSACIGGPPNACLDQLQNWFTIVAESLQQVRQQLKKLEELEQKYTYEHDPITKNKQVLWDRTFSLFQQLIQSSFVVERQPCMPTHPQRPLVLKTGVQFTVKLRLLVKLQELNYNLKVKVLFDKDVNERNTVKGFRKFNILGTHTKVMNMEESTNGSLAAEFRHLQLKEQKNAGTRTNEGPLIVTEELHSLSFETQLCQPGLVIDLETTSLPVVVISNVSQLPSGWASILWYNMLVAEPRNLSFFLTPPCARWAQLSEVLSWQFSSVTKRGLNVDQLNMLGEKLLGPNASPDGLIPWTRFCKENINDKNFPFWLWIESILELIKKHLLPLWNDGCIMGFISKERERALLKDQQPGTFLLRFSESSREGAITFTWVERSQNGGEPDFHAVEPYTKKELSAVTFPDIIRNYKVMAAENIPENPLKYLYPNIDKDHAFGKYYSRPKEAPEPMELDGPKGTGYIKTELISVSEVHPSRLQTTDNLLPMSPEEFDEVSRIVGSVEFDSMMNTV

Molecular target: T1, lysophosphatidylcholine acyltransferase 2 (human (endogenous in BEAS-2B)) (UniProt Q7L5N7)
T1 sequence: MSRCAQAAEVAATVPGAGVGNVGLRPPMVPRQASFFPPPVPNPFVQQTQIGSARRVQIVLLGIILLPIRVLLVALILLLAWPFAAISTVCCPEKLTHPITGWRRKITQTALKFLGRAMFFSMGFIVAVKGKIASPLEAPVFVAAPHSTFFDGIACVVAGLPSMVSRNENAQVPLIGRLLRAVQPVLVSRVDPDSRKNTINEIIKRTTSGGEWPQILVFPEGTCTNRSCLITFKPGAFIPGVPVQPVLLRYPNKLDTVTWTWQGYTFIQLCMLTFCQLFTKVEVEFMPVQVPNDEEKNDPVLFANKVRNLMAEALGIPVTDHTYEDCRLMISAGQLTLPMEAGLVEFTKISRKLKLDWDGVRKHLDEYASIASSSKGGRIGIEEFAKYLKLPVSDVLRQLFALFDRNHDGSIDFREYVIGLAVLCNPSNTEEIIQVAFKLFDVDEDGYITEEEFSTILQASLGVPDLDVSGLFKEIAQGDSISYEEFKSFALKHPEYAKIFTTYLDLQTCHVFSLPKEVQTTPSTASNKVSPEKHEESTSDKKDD
Experiment: co-IP; BEAS-2B cells, control and lactate-treated (10 mM, 24 h); lysed in EBC buffer with protease/phosphatase inhibitors, antibody overnight at 4 °C, protein A/G beads, washed thrice with NETN buffer, detected by Western blot

histone deacetylase 9 (from UniProt Q9UKV0 1-1011) (enzyme)
binding: binds

transcription activator 1 (STAT1) (from UniProt P42224 1-750)
binding: binds
